What all share (experiment): ITC; MicroCal PEAQ-ITC, 25 °C, 20 mM sodium phosphate pH 6.5, 100 mM NaCl; PRPF40A constructs and GB1-tagged SF1 16-mer peptides; who was in the syringe is not stated for these panels (Fig. 2B, Fig. 5C); one-site model; both purified
Background: ITC needs no label: the signal is the heat of the interaction.

The target of experiment [1] is T1, GB1-SF1(342-357) 16-mer peptide.
T1 sequence: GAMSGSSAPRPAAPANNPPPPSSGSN

Experiment [2] has as its target T2, GB1-SF1(565-580) 16-mer peptide.
T2 sequence: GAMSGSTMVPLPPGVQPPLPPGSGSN

The target of experiment [3] is T3, GB1-SF1(387-402) 16-mer peptide.
T3 sequence: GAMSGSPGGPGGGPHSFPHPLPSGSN

Experimental findings from paper PMC11079029, “Intramolecular autoinhibition regulates the selectivity of PRPF40A tandem WW domains for proline-rich motifs” (Nature Communications, 2024) are described below.

No constants are given. Whether binding was seen depends on the method and setting.

B1: PRPF40A N-ext-WW12 (residues 56-236) (domain or fragment, UniProt O75400 56-236)
chain: MGHPGMHYAPMGMHPMGQRANMPPVPHGMMPQMMPPMGGPPMGQMPGMMSSVMPGMMMSHMSQASMQPALPPGVNSMDVAAGTASGAKSMWTEHKSPDGRTYYYNTETKQSTWEKPDDLKTPAEQLLSKCPWKEYKSDSGKPYYYNSQTKESRWAKPKELEDLEGYQNTIVAGSLITKSNL
For the molecule B1, the binding entry in experiment [1] was “no binding (tested: cell around 20–40 uM, syringe 200–500 uM)”; in experiment [2] it was “no binding (tested: cell around 20–40 uM, syringe 200–500 uM)”; in experiment [3], “no binding (tested: cell around 20–40 uM, syringe 200–500 uM)”.
